Assay results published in PMC9974998.
These are yes or no findings as the source states them, for the method shown. For some of these results: Binding seen in cells or lysates may run through a third protein. Some results given as binding are weak or reduced against the parent protein; the word gives no strength.

Amino acid sequences for entries named in this document (tags omitted).
UniProt Q15172: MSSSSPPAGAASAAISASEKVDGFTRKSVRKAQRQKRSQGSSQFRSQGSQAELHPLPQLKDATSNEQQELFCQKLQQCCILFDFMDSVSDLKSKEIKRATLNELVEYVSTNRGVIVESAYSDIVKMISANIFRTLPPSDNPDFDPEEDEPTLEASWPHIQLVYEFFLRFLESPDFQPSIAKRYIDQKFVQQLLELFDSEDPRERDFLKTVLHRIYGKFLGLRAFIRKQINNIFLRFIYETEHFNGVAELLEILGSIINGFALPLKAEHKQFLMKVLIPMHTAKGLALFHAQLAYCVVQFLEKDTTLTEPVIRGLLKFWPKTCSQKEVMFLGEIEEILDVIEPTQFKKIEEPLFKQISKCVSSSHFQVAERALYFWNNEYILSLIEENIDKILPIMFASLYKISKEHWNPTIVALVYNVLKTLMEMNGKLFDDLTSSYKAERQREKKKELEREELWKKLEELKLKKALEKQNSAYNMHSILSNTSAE
UniProt P30153: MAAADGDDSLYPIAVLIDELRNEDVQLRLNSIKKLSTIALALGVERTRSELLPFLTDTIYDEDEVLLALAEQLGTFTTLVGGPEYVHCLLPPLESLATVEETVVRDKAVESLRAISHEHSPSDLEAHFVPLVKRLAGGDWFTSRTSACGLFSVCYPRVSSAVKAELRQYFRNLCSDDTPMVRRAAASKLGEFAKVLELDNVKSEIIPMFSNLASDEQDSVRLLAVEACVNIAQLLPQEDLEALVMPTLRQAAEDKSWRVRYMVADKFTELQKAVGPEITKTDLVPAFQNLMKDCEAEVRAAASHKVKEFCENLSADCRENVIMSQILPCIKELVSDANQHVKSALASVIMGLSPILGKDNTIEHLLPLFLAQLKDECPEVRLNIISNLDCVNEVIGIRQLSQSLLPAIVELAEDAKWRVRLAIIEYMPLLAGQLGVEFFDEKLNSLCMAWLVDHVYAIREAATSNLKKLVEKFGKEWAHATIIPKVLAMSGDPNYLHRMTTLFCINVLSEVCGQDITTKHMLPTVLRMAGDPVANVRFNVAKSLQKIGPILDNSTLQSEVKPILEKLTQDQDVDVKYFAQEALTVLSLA

Key:
GST-BubR1(647-720) = GST-BubR1(647-720) (UniProt O60566); test: pull-down; competition: GST-BubR1(647-720), B56α and CIP2A(1-560)V5, 10 pmol each, glutathione bead pull-down, B56α on BubR1 by Western blot; both purified
[1] = molecular target: B56α (recombinant, WT) (human) (UniProt Q15172); test: pull-down; GST-CIP2A incubated with the pre-assembled PP2A-B56α holoenzyme (A-B56α-PP2Ac), glutathione beads; Coomassie gel and Western blot; CIP2A also titrated against equal molar amounts of PP2A proteins; both purified
[2] = molecular target: B56α (recombinant, WT) (human) (UniProt Q15172); test: SEC; pre-assembled A-B56α-PP2Ac trimer incubated with GST; Superdex 5/150, 28 mM Tris pH 7.2, 150 mM NaCl, 0.05% NP-40, 1.25% glycerol, 2 mM DTT, room temperature; 50 pmol of each protein; fractions by Western blot; both purified
[3] = molecular target: GFP-tagged B56α WT (human) (UniProt Q15172); test: co-IP; GFP-trap pull-down of GFP-B56α variants from HEK-293-T lysates (NET lysis buffer, NENT100 binding, NENT150 washes); immunoblot for PP2A-A and PP2Ac

Substance: CIP2A(1-560)V5 His (from UniProt Q8TCG1 1-560) (domain or fragment)
- binding (GST-BubR1(647-720)): no binding (tested: 10 pmol of each protein)

Substance: PP2A-A subunit (recombinant) (from UniProt P30153 1-589)
- binding [1]: binds
- binding [2]: binds

Substance: endogenous PP2A-A subunit (HEK-293-T) (from UniProt P30153 1-589)
- binding [3]: binds
